Reference: PubChem BioAssay AID720505 (Drosophila RNAi Screening Center, 2013)

Test: 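Genes needed for store-operated calcium entry in fly cells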 (primary screen)
Cell system: Drosophila S2R+ cells
Reagent: long dsRNA against Drosophila genes
Challenge: thapsigargin (2 µM) in calcium-free buffer to empty internal stores, then 2 mM calcium added back
Read-out: 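Stores emptied by 2 µM thapsigargin without calcium, then 2 mM calcium re-added; fluo-4 fluorescence followed by FLIPR in 384-well plates, per-well averaged endpoint, raw; two screen passes, some wells retested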
Direction: calcium signal and retest calcium signal: higher = more calcium entry after store depletion
Hit rule: 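Knock-downs counted as hits when calcium entry dropped relative to STIM1 positive and Rho1 negative controls present on each plate; roughly 1500 genes called, with reductions of differing size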
Meaning of the calls: active = called as lowering calcium entry; inactive = not called
The deposit covers about 20,000 reagents; this is an unselected part of those with a known target gene and a result. Over the whole deposit, about 2,100 (10%) got an active call. 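Raw plate signals without normalisation; calls rest on control-based scores that were not deposited; replicate 2 separates called from uncalled poorly.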 The record does not give: the amount of reagent, the time to read-out.

{"target gene": "CG9008", "amplicon": "DRSC01889", "calcium signal, replicate 1": 71.8, "calcium signal, replicate 2": 130, "Call": "inactive"}
{"target gene": "Tina-1", "amplicon": "DRSC04317", "calcium signal, replicate 1": 56.3, "calcium signal, replicate 2": 93.6, "Call": "active"}
{"target gene": "Sfp53D", "amplicon": "DRSC05625", "calcium signal, replicate 1": 103, "calcium signal, replicate 2": 81.1, "Call": "inactive"}
{"target gene": "snz", "amplicon": "DRSC17969", "calcium signal, replicate 1": 130, "calcium signal, replicate 2": 113, "Call": "inactive"}
{"target gene": "CG15772", "amplicon": "DRSC18078", "calcium signal, replicate 1": 200, "calcium signal, replicate 2": 168, "Call": "inactive"}
{"target gene": "Nup153", "amplicon": "DRSC19904", "calcium signal, replicate 1": 72, "calcium signal, replicate 2": 104, "retest calcium signal, replicate 1": 6371, "retest calcium signal, replicate 2": 115, "Call": "active"}
{"target gene": "CG7094", "amplicon": "DRSC03005", "calcium signal, replicate 1": 96.1, "calcium signal, replicate 2": 120, "Call": "inactive"}
{"target gene": "CG30419", "amplicon": "DRSC04208", "calcium signal, replicate 1": 136, "calcium signal, replicate 2": 144, "retest calcium signal, replicate 1": 103, "retest calcium signal, replicate 2": 125, "Call": "inactive"}
{"target gene": "CG30419", "amplicon": "DRSC04209", "calcium signal, replicate 1": 106, "calcium signal, replicate 2": 219, "retest calcium signal, replicate 1": 146, "retest calcium signal, replicate 2": 106, "Call": "inactive"}
{"target gene": "CG30419", "amplicon": "DRSC22519", "calcium signal, replicate 1": 109, "calcium signal, replicate 2": 133, "Call": "inactive"}
{"target gene": "CG6271", "amplicon": "DRSC16006", "calcium signal, replicate 1": 135, "calcium signal, replicate 2": 131, "Call": "inactive"}
{"target gene": "Gmap", "amplicon": "DRSC19988", "calcium signal, replicate 1": 142, "calcium signal, replicate 2": 116, "Call": "inactive"}
{"target gene": "Gmap", "amplicon": "DRSC20057", "calcium signal, replicate 1": 102, "calcium signal, replicate 2": 110, "Call": "inactive"}

5 entries already listed, sorted by “calcium signal, replicate 2”, low to high:
{"target gene": "Sfp53D", "amplicon": "DRSC05625", "calcium signal, replicate 1": 103, "calcium signal, replicate 2": 81.1, "Call": "inactive"}
{"target gene": "Tina-1", "amplicon": "DRSC04317", "calcium signal, replicate 1": 56.3, "calcium signal, replicate 2": 93.6, "Call": "active"}
{"target gene": "snz", "amplicon": "DRSC17969", "calcium signal, replicate 1": 130, "calcium signal, replicate 2": 113, "Call": "inactive"}
{"target gene": "CG9008", "amplicon": "DRSC01889", "calcium signal, replicate 1": 71.8, "calcium signal, replicate 2": 130, "Call": "inactive"}
{"target gene": "CG15772", "amplicon": "DRSC18078", "calcium signal, replicate 1": 200, "calcium signal, replicate 2": 168, "Call": "inactive"}

Additional results follow.
{"target gene": "Scsalpha2", "amplicon": "DRSC16003", "calcium signal, replicate 1": 149, "calcium signal, replicate 2": 153, "Call": "inactive"}
{"target gene": "CG7907", "amplicon": "DRSC16339", "calcium signal, replicate 1": 75.7, "calcium signal, replicate 2": 157, "Call": "active"}
{"target gene": "Kah", "amplicon": "DRSC08515", "calcium signal, replicate 1": 81.5, "calcium signal, replicate 2": 60.7, "Call": "inactive"}
{"target gene": "comm2", "amplicon": "DRSC09881", "calcium signal, replicate 1": 109, "calcium signal, replicate 2": 120, "Call": "inactive"}
{"target gene": "comm2", "amplicon": "DRSC10877", "calcium signal, replicate 1": 86, "calcium signal, replicate 2": 121, "Call": "inactive"}
{"target gene": "CG8924", "amplicon": "DRSC20122", "calcium signal, replicate 1": 137, "calcium signal, replicate 2": 144, "Call": "inactive"}
{"target gene": "CG8924", "amplicon": "DRSC23027", "calcium signal, replicate 1": 115, "calcium signal, replicate 2": 145, "Call": "inactive"}
{"target gene": "CG13891", "amplicon": "DRSC08361", "calcium signal, replicate 1": 82.4, "calcium signal, replicate 2": 103, "Call": "inactive"}
{"target gene": "TfIIB", "amplicon": "DRSC03454", "calcium signal, replicate 1": 170, "calcium signal, replicate 2": 113, "Call": "inactive"}
{"target gene": "mRpL11", "amplicon": "DRSC15482", "calcium signal, replicate 1": 104, "calcium signal, replicate 2": 182, "Call": "inactive"}
{"target gene": "pasi1", "amplicon": "DRSC16299", "calcium signal, replicate 1": 59.9, "calcium signal, replicate 2": 159, "retest calcium signal, replicate 1": 133, "retest calcium signal, replicate 2": 9289, "Call": "active"}
{"target gene": "pasi1", "amplicon": "DRSC22385", "calcium signal, replicate 1": 77.9, "calcium signal, replicate 2": 237, "Call": "inactive"}
{"target gene": "CG14402", "amplicon": "DRSC02386", "calcium signal, replicate 1": 163, "calcium signal, replicate 2": 121, "Call": "inactive"}
{"target gene": "Tektin-C", "amplicon": "DRSC09741", "calcium signal, replicate 1": 99.7, "calcium signal, replicate 2": 75.8, "Call": "inactive"}
{"target gene": "Dscam1", "amplicon": "DRSC05047", "calcium signal, replicate 1": 97, "calcium signal, replicate 2": 127, "Call": "inactive"}
{"target gene": "Dscam1", "amplicon": "DRSC05048", "calcium signal, replicate 1": 88, "calcium signal, replicate 2": 82.2, "Call": "inactive"}
{"target gene": "Dscam1", "amplicon": "DRSC07407", "calcium signal, replicate 1": 85.9, "calcium signal, replicate 2": 141, "Call": "inactive"}
{"target gene": "Dscam1", "amplicon": "DRSC21562", "calcium signal, replicate 1": 193, "calcium signal, replicate 2": 117, "Call": "inactive"}
{"target gene": "Dscam1", "amplicon": "DRSC22383", "calcium signal, replicate 1": 89, "calcium signal, replicate 2": 205, "Call": "inactive"}
